Some compounds share one wording; it may come from a single statement.

This data set has as its system Cetuximab I83E. The data set is described as follows: UV photo-conjugation of meditope peptides to cetuximab I83E, hydrophobic interaction chromatography. The following applies: HIC, FIG. 1.

For “Peptide 13: MMAD conjugated photoactivatable long cQFD benzolyl-Phe 10”, the “covalent bonding to cetuximab after UV irradiation” value is “did not efficiently covalent bond”. The same measure for “Peptide 11: MMAD conjugated photoactivatable long cQFD azido-Phe 10”: “did not efficiently covalent bond”.
